Laboratory results as given in paper PMC7414989.
Results are given in words; binding and its absence hold for the method and conditions named. In cells and extracts the contact can be indirect. Some entries that bind do so weakly or less than the wild type. Tags and fused reporters may be left off the sequences shown.

Protein sequences, listed by entry. Tags and fused reporters are not part of them. Residues count along the entry.
UniProt O14763, residues 56-440: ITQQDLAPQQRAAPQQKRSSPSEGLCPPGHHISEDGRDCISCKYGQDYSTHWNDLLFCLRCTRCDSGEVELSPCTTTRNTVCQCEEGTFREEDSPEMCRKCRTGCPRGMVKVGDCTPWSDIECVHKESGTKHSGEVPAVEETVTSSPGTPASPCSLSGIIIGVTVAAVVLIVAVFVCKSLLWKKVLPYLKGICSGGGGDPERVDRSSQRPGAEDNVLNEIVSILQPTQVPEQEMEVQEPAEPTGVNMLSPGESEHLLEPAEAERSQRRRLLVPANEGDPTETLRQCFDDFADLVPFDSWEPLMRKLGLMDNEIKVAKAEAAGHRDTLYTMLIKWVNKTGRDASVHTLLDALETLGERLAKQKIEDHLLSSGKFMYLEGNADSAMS

Biological target: DR5 (human (endogenous in RA FLSs)) (UniProt O14763)
Assay: co-IP; RIPA lysates of RA FLSs challenged with CoCl2 or Tm, with or without Lv-IL13Rα1; IP with anti-IL13Rα1 or anti-DR5 (1 μg) and Protein A Dynabeads, blot with anti-DR5 or anti-IL13Rα1

binding	Binder
binds	IL13Rα1 (receptor, UniProt P78552 22-427) GGGGAAPTETQPPVTNLSVSVENLCTVIWTWNPPEGASSNCSLWYFSHFGDKQDKKIAPETRRSIEVPLNERICLQVGSQCSTNESEKPSILVEKCISPPEGDPESAVTELQCIWHNLSYMKCSWLPGRNTSPDTNYTLYYWHRSLEKIHQCENIFREGQYFGCSFDLTKVKDSSFEQHSVQIMVKDNAGKIKPSFNIVPLTSRVKPDPPHIKNLSFHNDDLYVQWENPQNFISRCLFYEVEVNNSQTETHNVFYVQEAKCENPEFERNVENTSCFMVPGVLPDTLNTVRIRVKTNKLCYEDDKLWSNWSQEMSIGKKRNSTLYITMLLIVPVIVAGAIIVLLLYLKRLKIIIFPPIPDPGKIFKEMFGDQNDDTLHWKKYDIYEKQTKEETDSVVLIENLKKASQ
binds	Myc-tagged-wild type human IL13Rα1 (receptor, UniProt P78552 22-427) GGGGAAPTETQPPVTNLSVSVENLCTVIWTWNPPEGASSNCSLWYFSHFGDKQDKKIAPETRRSIEVPLNERICLQVGSQCSTNESEKPSILVEKCISPPEGDPESAVTELQCIWHNLSYMKCSWLPGRNTSPDTNYTLYYWHRSLEKIHQCENIFREGQYFGCSFDLTKVKDSSFEQHSVQIMVKDNAGKIKPSFNIVPLTSRVKPDPPHIKNLSFHNDDLYVQWENPQNFISRCLFYEVEVNNSQTETHNVFYVQEAKCENPEFERNVENTSCFMVPGVLPDTLNTVRIRVKTNKLCYEDDKLWSNWSQEMSIGKKRNSTLYITMLLIVPVIVAGAIIVLLLYLKRLKIIIFPPIPDPGKIFKEMFGDQNDDTLHWKKYDIYEKQTKEETDSVVLIENLKKASQ
